Reference: publication PMC12267056 (Nature, 2025)
No constants are given. Whether binding was seen depends on the method and setting.

The chains behind the UniProt entries cited, without tags or fusion partners.
UniProt P78383: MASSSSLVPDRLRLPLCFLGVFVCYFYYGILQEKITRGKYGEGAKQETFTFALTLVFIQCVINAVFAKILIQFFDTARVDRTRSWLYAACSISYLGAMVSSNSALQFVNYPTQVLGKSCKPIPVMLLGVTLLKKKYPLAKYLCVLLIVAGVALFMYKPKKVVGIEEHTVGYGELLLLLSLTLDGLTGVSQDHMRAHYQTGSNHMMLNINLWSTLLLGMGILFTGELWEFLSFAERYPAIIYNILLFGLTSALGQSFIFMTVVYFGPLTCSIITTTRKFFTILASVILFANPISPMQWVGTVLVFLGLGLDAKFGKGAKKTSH

Biological target: human SLC35B1 (wild type) (human) (UniProt P78383)
Experiment: cryo-EM structure; SLC35B1-Fv-MBP complex isolated by SEC in 20 mM HEPES pH 7.5, 150 mM NaCl, 0.006% GDN; without nucleotide or with 5 mM AMP-PNP or 5 mM ADP; MBP masked in local refinement; both purified

human SLC35B1 (wild type) (from UniProt P78383 1-322)
binding: no binding
